Measured values published in article PMC12410181.
No constants are given. Whether binding was seen depends on the method and setting. Binding seen in cells or lysates may run through a third protein. A yes stands for co-enrichment or nearness to the bait. Other partners may have been found.

Amino acid sequences for entries named in this document (tags omitted).
UniProt O00571: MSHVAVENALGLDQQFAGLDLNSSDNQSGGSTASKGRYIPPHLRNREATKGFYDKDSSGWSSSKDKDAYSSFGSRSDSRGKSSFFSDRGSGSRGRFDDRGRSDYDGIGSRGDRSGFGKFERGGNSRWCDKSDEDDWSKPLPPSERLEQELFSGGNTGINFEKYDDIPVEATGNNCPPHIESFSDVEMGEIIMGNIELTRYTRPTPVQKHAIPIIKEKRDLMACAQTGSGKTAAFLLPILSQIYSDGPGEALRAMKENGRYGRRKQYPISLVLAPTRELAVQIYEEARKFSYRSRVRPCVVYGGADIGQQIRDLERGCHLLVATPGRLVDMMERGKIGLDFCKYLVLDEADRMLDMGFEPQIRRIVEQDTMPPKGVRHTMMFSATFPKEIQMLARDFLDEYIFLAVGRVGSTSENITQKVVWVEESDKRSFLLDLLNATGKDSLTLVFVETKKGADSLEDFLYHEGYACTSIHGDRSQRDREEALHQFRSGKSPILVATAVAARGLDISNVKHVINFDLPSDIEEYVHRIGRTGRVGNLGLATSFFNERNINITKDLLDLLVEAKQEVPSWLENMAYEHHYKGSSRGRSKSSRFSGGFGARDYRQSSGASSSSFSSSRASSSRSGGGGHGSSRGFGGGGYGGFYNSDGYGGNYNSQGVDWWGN
UniProt O00429: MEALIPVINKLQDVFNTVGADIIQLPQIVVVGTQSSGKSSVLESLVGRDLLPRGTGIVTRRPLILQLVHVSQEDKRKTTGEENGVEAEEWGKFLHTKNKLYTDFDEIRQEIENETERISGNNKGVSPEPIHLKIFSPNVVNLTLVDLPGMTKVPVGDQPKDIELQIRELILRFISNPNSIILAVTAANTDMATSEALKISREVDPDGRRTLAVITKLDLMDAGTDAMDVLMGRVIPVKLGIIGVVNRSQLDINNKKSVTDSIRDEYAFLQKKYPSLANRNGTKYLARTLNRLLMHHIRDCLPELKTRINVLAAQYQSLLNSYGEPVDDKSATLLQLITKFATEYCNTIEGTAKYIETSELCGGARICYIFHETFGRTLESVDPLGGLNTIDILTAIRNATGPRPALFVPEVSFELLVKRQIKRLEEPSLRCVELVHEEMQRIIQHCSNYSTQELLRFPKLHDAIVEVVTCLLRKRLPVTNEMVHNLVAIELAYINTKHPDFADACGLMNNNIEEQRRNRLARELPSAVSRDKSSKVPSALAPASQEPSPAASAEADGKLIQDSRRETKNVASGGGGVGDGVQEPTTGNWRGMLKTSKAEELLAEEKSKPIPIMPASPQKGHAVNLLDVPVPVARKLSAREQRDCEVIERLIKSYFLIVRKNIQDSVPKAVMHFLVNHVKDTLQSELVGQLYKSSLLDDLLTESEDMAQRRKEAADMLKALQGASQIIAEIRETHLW

Target: HA-tagged DEAD-box polypeptide 3, X-linked (DDX3) (UniProt O00571)
Assay: affinity purification with mass spectrometry; mitochondrial fractions (2 mg protein) of HA-DDX3-overexpressing BT549 cells treated with or without CCCP (10 uM, 6 h), immunoprecipitated with anti-HA antibody (2 ug), SDS-PAGE, trypsin digestion, nano LC-MS/MS

dynamin-related protein 1 (DRP1), endogenous (from UniProt O00429 1-736)
binding: binds
